Results from patent US8906925B2, “Pyrido[4,3-B]indoles containing rigid moieties” (Medivation Technologies, Inc., priority 2008, dated 2014).

System: Sprague Dawley rats

With COc1cc2c(cc1OC)C(=O)C(CC1CCN(Cc3ccccc3)CC1)C2 (centres unmarked) [donepezil, reference compound] the “number of "good learners" (Δ≧5 sec.)” value (1 mg/kg i.p.) was “confirmed the cognitive enhancing activity” and the “procognitive activity (natural forgetting)” value (1 mg/kg, i.p., 30 min before T1, positive reference) was “displayed a clear procognitive activity”.
